PubChem BioAssay (NCATS)
The shares of active, inactive and inconclusive entries below differ from those in the screen. A potency beside an inconclusive call is a rough fit, not a confirmed value. Active and inactive are the calls of the source. Calls come from the whole dose curve; as a rule, active = well fitted cell-killing curve with a large enough effect; inconclusive = small, poorly fitted or top-dose-only effect, or effect the other way; inactive = no such curve, though single readings can be large or run the other way.

assay: Quantitative highthroughput screen to assess conditional lethalithy of SEM cells grown in RPMI1640 with unreated serum (RPMI+s) (AID 1963883); settings: SEM B-ALL cells, CellTiter-Glo viability, 48 h; viability: at 45.8 µM (top of the series); note: nearly all actives have a fitted effect of over 35% in size
Description: Assay Provider: Jason Cantor Ph.D.
Department of Biochemistry
University of Wisconsin-Madison, Madison, WI, USA
Chemical screening studies have identified drug sensitivities across hundreds of cancer cell lines but most putative therapeutics fail to translate. Discovery and development of drug candidates in models that more accurately reflect nutrient levels in human blood is a major challenge. Here we performed high-throughput screens in conventional versus Human Plasma-Like Medium (HPLM) to identify compounds that were "missed" when screening using the artificial culture condition. Sets of conditional anticancer compounds spanned phases of clinical development and included non-oncology drugs were assessed. […] We also traced conditional phenotypes for several chemotherapeutics to availability of HPLM-specific metabolites and confirmed others for compounds whose reported targets are encoded by nonessential genes. Our findings establish generalizable strategies for exploiting conditional lethality in HPLM to reveal therapeutic candidates and mechanisms of action in cancer cells.
Described herein are the results of each viability screens against three cell lines: NOMO1 (an acute myeloid leukemia cell line); P12-Ichikawa (a T-cell acute lymphoblastic leukemia); and SEM (a B-cell ALL). Each assay was screened using 3 different cell culture media: homemade human plasma-Like medium with 10% dialyzed fetal bovine serum (HPLM+ds); RPMI1640 with 10% untreated FBS and 5mM glucose (RPMI+s); and RPMI1640 with 10% dialyzed fetal bovine serum and 5 mM glucose (RPMI+ds).
PROTOCOL TABLE (as described by Inglese J, Shamu CE and Guy RK. 2007)
SEQUENCE No. (e.g., 1, 2, 3, etc.); […] (e.g., Cells, Incubation, Reagent, etc.); VALUE and DESCRIPTION.
1; Cells; 5 uL; white, solid bottom 1536-well Greiner assay plate.
2; Compounds; 23 nL; Kalypsis pin tool (Wako USA) equipped with a 1536-well pin head to transfer to the assay plates.
3; Incubation; 48 hours; 37C incubation.
4; Reagent; 3 uL; CellTiter Glo (Promega).
5; Incubation; 5 min, room temperature
6; Detection; Luminescence, Viewlux PerkinElmer.
NOTES (numbers refer to Sequence numbers above)
1. Briefly, 5 ul of cell reagent was dispensed using a Multidrop Combi Dispenser. The NOMO1 and SEM cells were plated at 500 cells/well and the P12-Ichikawa line at 1000 cells/well.
2. After seeding the cells, 23 nL of MIPE 4.1 library compounds (in DMSO) were added to each plate using a Kalypsys 1536 Pintool dispenser. Bortezomib at final concentration of […] and DMSO were added to each plate as positive and negative controls respectively. For each screen, MIPE 4.1 compounds were added over an eleven-point concentration range […] in 3-fold dilutions.
3. Each plate was covered with a stainless steel gasketed lid to prevent evaporation and incubated for 48 hour at 37C, 95% relative humidity, and 5% CO2.
4-5. Three microliter CellTilter-GloTM luminescent substrate mix (Promega) reagent was added to the assay plate and incubated at room temperature for 5 min.
6. The luminescence signal was measured using a ViewLux (PerkinElmer) multiplate reader with a 2 second exposure time per plate. Data for each compound were normalized as percent viability such that measurements for DMSO and the empty well controls in each plate were defined as 100% and 0%, respectively.
Potency is the fitted concentration of half-maximal effect.

SMILES | Potency
Cc1cc2nc3c(=O)[nH]c(=O)nc-3n(CC(O)C(O)C(O)CO)c2cc1C (stereo not given) | inactive
CN(C)CCC=C1c2ccccc2C=Cc2ccccc21 | inactive
CC(c1cc2ccccc2s1)N(O)C(N)=O (stereo not given) | inconclusive: 23.5 µM [cytotoxic, partial curve, poor fit]
COc1ccc2c(c1OC)C(=O)OC2[C@H]1c2c(cc3c(c2OC)OCO3)CCN1C (stereo not given in full) | active: 0.118 µM
CC(=O)C1=C(O)C=C2Oc3c(C(C)=O)c(O)c(C)c(O)c3C2(C)C1=O (stereo not given) | inactive
OC[C@H]1O[C@@H](OCCc2ccc(O)cc2)[C@H](O)[C@@H](O)[C@H]1O | inconclusive: 2.96 µM [cytotoxic, full curve, poor fit]
O=S(=O)(c1cccc2cnccc12)N1CCCNCC1 | inconclusive: 37.2 µM [cytotoxic, single point]
CC1(C)CCC(CN2CCN(c3ccc(C(=O)NS(=O)(=O)c4ccc(NCC5CCOCC5)c([N+](=O)[O-])c4)c(Oc4cnc5[nH]ccc5c4)c3)CC2)=C(c2ccc(Cl)cc2)C1 | active: 0.0526 µM
O=c1[nH]c(=O)n(C2CCCO2)cc1F (stereo not given) | inactive
COc1cc2c(cc1OC)[C@@H]1Cc3ccc(OC)c(OC)c3CN1CC2 | inactive
O[C@@H](CNC[C@H](O)[C@H]1CCc2cc(F)ccc2O1)[C@@H]1CCc2cc(F)ccc2O1 | inconclusive: 20.9 µM [cytotoxic, partial curve]
Nc1ncnc2c1ncn2[C@@H]1O[C@H](CO)C[C@@H]1O | inconclusive: 11.8 µM [cytotoxic, full curve, poor fit]
CC(=O)OCC(=O)[C@@]1(O)CC[C@H]2[C@@H]3CCC4=CC(=O)CC[C@]4(C)[C@@H]3C(=O)C[C@@]21C | inactive
COc1cc(NCc2ccc3nc(N)nc(N)c3c2C)cc(OC)c1OC | inconclusive: 20.9 µM [cytotoxic, partial curve, poor fit]
C[C@H]1[C@@H](OC(=O)CCC(=O)O)O[C@@H]2O[C@@]3(C)CC[C@@H]4[C@H](C)CC[C@@H]1[C@@]24OO3 | active: 3.72 µM
O=C1CCC(N2C(=O)c3ccccc3C2=O)C(=O)N1 (stereo not given) | inconclusive: 11.8 µM [cytotoxic, single point]
CNC(=O)c1cc(COc2nnc(Nc3ccc(Cl)cc3)c3ccoc23)ccn1 | inconclusive: 16.6 µM [cytotoxic, partial curve, poor fit]
CCOC(=O)c1c(C)n(C)c2ccc(O)cc12 | inactive
Nc1ccn([C@H]2CC[C@@H](CO)O2)c(=O)n1 | inconclusive: 11.8 µM [cytotoxic, single point]
CCC(=C(c1ccccc1)c1ccc(OCCN(C)C)cc1)c1ccccc1 | inconclusive: 33.2 µM [cytotoxic, single point]

SMILES | Potency
OCCn1cc(-c2cnc3nnn(Cc4ccc5ncccc5c4)c3n2)cn1 | inconclusive: 16.6 µM [cytotoxic, partial curve]
c1cc(CN2CCCNCCNCCCNCC2)ccc1CN1CCCNCCNCCCNCC1 | inactive
C[C@H](NC(=O)C(=O)Nc1ccccc1C(C)(C)C)C(=O)N[C@@H](CC(=O)O)C(=O)COc1c(F)c(F)cc(F)c1F | active: 5.9 µM
CC[C@]1(O)C[C@@H]2CN(CCc3c([nH]c4ccccc34)[C@@](C(=O)OC)(c3cc4c(cc3OC)N(C=O)[C@@H]3C45CCN4CC=C[C@](CC)([C@H]45)[C@@H](OC(C)=O)[C@]3(O)C(=O)OC)C2)C1 (stereo not given in full) | inconclusive: 0.0019 µM [rising, full curve]
O=C(O)c1ccc(-c2c[nH]c3ncc(-c4ccccc4)cc23)cc1C1CCCC1 | inconclusive: 4.69 µM [cytotoxic, full curve]
CN1CCN(c2c(F)cc3c(=O)c(C(=O)O)cn4c3c2OCN4C)CC1 | inconclusive: 0.0012 µM [rising, full curve]
COC(=O)N[C@H](C(=O)N[C@@H](Cc1ccccc1)[C@@H](O)CN(Cc1ccc(-c2ccccn2)cc1)NC(=O)[C@@H](NC(=O)OC)C(C)(C)C)C(C)(C)C | inactive
COc1cc2nccc(Oc3ccc(NC(=O)Nc4cc(C)on4)c(Cl)c3)c2cc1OC | active: 3.32 µM
CN[C@@H](C)C(=O)N[C@H]1CCCC[C@H]2CC[C@@H](C(=O)N[C@@H](c3ccccc3)c3cn(CCCCc4ccc(CCCCn5cc([C@@H](NC(=O)[C@@H]6CC[C@@H]7CCCC[C@H](NC(=O)[C@H](C)NC)C(=O)N76)c6ccccc6)nn5)cc4)nn3)N2C1=O | inconclusive: 26.4 µM [cytotoxic, single point]
CON=C(C(=O)N[C@@H]1C(=O)N2C(C(=O)O)=C(Cn3ccc(=N)n3CCO)CS[C@H]12)c1csc(N)n1 | inactive
CC[C@@]1(O)C(=O)OCc2c1cc1n(c2=O)Cc2cc3c(CN(C)C)c(O)ccc3nc2-1 | active: 0.0935 µM
c1cc(OCCN2CCCCC2)cc(-c2n[nH]c3ccc(-c4ncn[nH]4)cc23)c1 | inconclusive: 23.5 µM [cytotoxic, single point]
Cc1c(OCC(F)(F)F)ccnc1CS(=O)c1nc2ccccc2[nH]1 (stereo not given) | inactive
CNC(=O)[C@H](Cc1ccccc1)NC(=O)[C@H](CC(C)C)[C@H](CSc1cccs1)C(=O)NO | inconclusive: 13.2 µM [cytotoxic, partial curve]
CC=C(C)C(=O)O[C@H]1C(C)=C[C@]23C(=O)[C@@H](C=C(CO)[C@@H](O)[C@]12O)[C@H]1[C@@H](C[C@H]3C)C1(C)C | inconclusive: 0.187 µM [cytotoxic, partial curve]
CNC(=O)CN1CCC(Oc2cc3c(Nc4cccc(Cl)c4F)ncnc3cc2OC)CC1 | inconclusive: 26.4 µM [cytotoxic, single point]
CN1CCN(c2ncc(-c3cc(Cl)cc(Cl)c3Cl)c(N)n2)CC1 | inactive
N[C@@H](CC(=O)N1CCn2c(nnc2C(F)(F)F)C1)Cc1cc(F)c(F)cc1F | inconclusive: 11.8 µM [cytotoxic, single point]
CCn1cc(C(=O)O)c(=O)c2cc(F)c(N3CCN(C)CC3)cc21 | inactive
CCOc1cc(N)c(Cl)cc1C(=O)NCC1CN(Cc2ccc(F)cc2)CCO1 (stereo not given) | inactive
